The supplement of paper PMC4604168 (melanoma cell lines)
This is one part of the list. Repeats are few or missing, and single values can be far off.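 Cells were imaged in 1,536-well plates, and nuclei stained with an antibody against cleaved PARP were counted against all DNA-stained nuclei to give the apoptosis fraction. Screening doses were chosen to leave most cells alive, and resting and induced cleaved-PARP levels differ strongly between cell lines.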

Columns and labels:
Test in all cases: cleaved PARP positive nuclei fraction relative to DMSO control; melanoma cells; higher = more apoptosis
Settings in all cases: library dose: low library concentration; 72 h
[1] = tested on: WM115
[2] = tested on: WM1716
[3] = tested on: WM1745
[4] = tested on: WM3526
[5] = tested on: WM3619
[6] = tested on: WM451Lu

| SMILES | cleaved PARP positive nuclei fraction [1] [%] | cleaved PARP positive nuclei fraction [2] [%] | cleaved PARP positive nuclei fraction [3] [%] | cleaved PARP positive nuclei fraction [4] [%] | cleaved PARP positive nuclei fraction [5] [%] | cleaved PARP positive nuclei fraction [6] [%] |
| --- | --- | --- | --- | --- | --- | --- |
| COc1ccc(C2=N[C@@H](c3ccc(Cl)cc3)[C@@H](c3ccc(Cl)cc3)N2C(=O)N2CCNC(=O)C2)c(OC(C)C)c1 [Nutlin-3] + O=C(O)c1ccc(-c2c[nH]c3ncc(-c4ccccc4)cc23)cc1C1CCCC1 [GSK650394] (first compound 0.1 µM, partner dose 0.16 µM) | 70.9 | 62.1 | 89.3 | 71.4 | 153 | 73.8 |
| COc1ccc(C2=N[C@@H](c3ccc(Cl)cc3)[C@@H](c3ccc(Cl)cc3)N2C(=O)N2CCNC(=O)C2)c(OC(C)C)c1 [Nutlin-3] + CCc1ccc(CCOc2ccc(CC3SC(=O)NC3=O)cc2)nc1 [pioglitazone] (first compound 0.1 µM, partner dose 2 µM) | 106 | 108 | 76.2 | 244 | 81.3 | 37.7 |
| C[C@@H](N)c1ccc(C(=O)Nc2ccnc3[nH]ccc23)cc1 + CCN(CC)CCNC(=O)c1c(C)[nH]c(/C=C2\C(=O)Nc3ccc(F)cc32)c1C [sunitinib] (first compound 0.4 µM, partner dose 0.4 µM) | 78.6 | 53.8 | 279 | 48.6 | 62.6 | 90.4 |
| Cn1cnc2c(F)c(Nc3ccc(Br)cc3Cl)c(C(=O)NOCCO)cc21 [selumetinib] + O=c1cc(-c2cccc3c2Sc2ccccc2S3)oc(N2CCOCC2)c1 [KU55933] (first compound 0.015 µM, partner dose 1 µM) | 169 | 36 | 85.6 | 285 | 105 | 79.2 |
| NC1(c2ccc(-c3nc4ccn5c(=O)[nH]nc5c4cc3-c3ccccc3)cc2)CCC1 + COc1cc(N2CCC(N3CCN(C)CC3)CC2)ccc1Nc1ncc(Cl)c(Nc2ccccc2S(=O)(=O)C(C)C)n1 [NVP-TAE684] (first compound 0.4 µM, partner dose 0.08 µM) | 85.4 | 226 | 90.5 | 191 | 86.7 | 47.6 |
| COc1ccc(C2=N[C@@H](c3ccc(Cl)cc3)[C@@H](c3ccc(Cl)cc3)N2C(=O)N2CCNC(=O)C2)c(OC(C)C)c1 [Nutlin-3] + Cc1cc(N2CCOCC2)cc2[nH]c(-c3c(NC[C@@H](O)c4cccc(Cl)c4)cc[nH]c3=O)nc12 [BMS536924] (first compound 0.1 µM, partner dose 0.2 µM) | 211 | 54.3 | 123 | 62.9 | 105 | 114 |
| Cn1cnc2c(F)c(Nc3ccc(Br)cc3Cl)c(C(=O)NOCCO)cc21 [selumetinib] + O=S(=O)(c1ccccc1)N(CC(F)(F)F)c1ccc(C(O)(C(F)(F)F)C(F)(F)F)cc1 [T0901317] (first compound 0.015 µM, partner dose 1.4 µM) | 160 | 54.7 | 116 | 114 | 133 | 94.5 |
| Cn1sc(=O)n(Cc2ccccc2)c1=O + N#Cc1c(O)c2c(-c3ccc(-c4ccccc4O)cc3)csc2[nH]c1=O [A769662] (first compound 0.4 µM, partner dose 2 µM) | 88 | 127 | 87.2 | 40.3 | 94.7 | 61.3 |
| CC(=O)O[C@@]12CO[C@@H]1C[C@H](O)[C@@]1(C)C(=O)[C@H](O)C3=C(C)[C@@H](OC(=O)[C@H](O)[C@@H](NC(=O)OC(C)(C)C)c4ccccc4)C[C@@](O)([C@@H](OC(=O)c4ccccc4)[C@H]21)C3(C)C [Docetaxel] + C[C@]1(c2nc3c(C(N)=O)cccc3[nH]2)CCCN1 [Veliparib] (first compound 0.0001 µM, partner dose 1.4 µM) | 320 | 289 | 176 | 300 | 368 | 187 |
| Cn1cnc2c(F)c(Nc3ccc(Br)cc3Cl)c(C(=O)NOCCO)cc21 [selumetinib] + NC(=O)Nc1cc(-c2cccc(F)c2)sc1C(=O)N[C@H]1CCCNC1 [AZD7762] (first compound 0.015 µM, partner dose 0.02 µM) | 160 | 65.8 | 100 | 70.4 | 150 | 26.1 |
| NC1(c2ccc(-c3nc4ccn5c(=O)[nH]nc5c4cc3-c3ccccc3)cc2)CCC1 + C[C@]1(c2nc3c(C(N)=O)cccc3[nH]2)CCCN1 [Veliparib] (first compound 0.4 µM, partner dose 1.4 µM) | 278 | 104 | 105 | 111 | 101 | 178 |
| Cn1cnc2c(F)c(Nc3ccc(Br)cc3Cl)c(C(=O)NOCCO)cc21 [selumetinib] + O=C(O)c1ccc2c(c1)nc(Nc1cccc(Cl)c1)c1ccncc12 [CX4945] (first compound 0.015 µM, partner dose 0.4 µM) | 42.4 | 32.2 | 91.1 | 122 | 167 | 71.5 |
| CC(=O)O[C@@]12CO[C@@H]1C[C@H](O)[C@@]1(C)C(=O)[C@H](O)C3=C(C)[C@@H](OC(=O)[C@H](O)[C@@H](NC(=O)OC(C)(C)C)c4ccccc4)C[C@@](O)([C@@H](OC(=O)c4ccccc4)[C@H]21)C3(C)C [Docetaxel] + CC(C)CCN1c2nc(Nc3cc(F)c(O)c(F)c3)ncc2N(C)C(=O)C1C [BID1870] (first compound 0.0001 µM, partner dose 0.2 µM) | 473 | 222 | 163 | 589 | 131 | 71.5 |
| Cn1sc(=O)n(Cc2ccccc2)c1=O + Clc1ccc(Nc2nnc(Cc3ccncc3)c3ccccc23)cc1 [vatalanib] (first compound 0.4 µM, partner dose 2 µM) | 37.8 | 40.6 | 94.3 | 186 | 103 | 84.6 |
| CCN(CC)CCNC(=O)c1c(C)[nH]c(/C=C2\C(=O)Nc3ccc(F)cc32)c1C [sunitinib] + NC(=O)Nc1cc(-c2cccc(F)c2)sc1C(=O)N[C@H]1CCCNC1 [AZD7762] (first compound 0.4 µM, partner dose 0.02 µM) | 139 | 72.4 | 109 | 469 | 101 | 61.5 |
| CC(=O)O[C@@]12CO[C@@H]1C[C@H](O)[C@@]1(C)C(=O)[C@H](O)C3=C(C)[C@@H](OC(=O)[C@H](O)[C@@H](NC(=O)OC(C)(C)C)c4ccccc4)C[C@@](O)([C@@H](OC(=O)c4ccccc4)[C@H]21)C3(C)C [Docetaxel] + O=c1cc(-c2cccc3c2Sc2ccccc2S3)oc(N2CCOCC2)c1 [KU55933] (first compound 0.0001 µM, partner dose 1 µM) | 701 | 142 | 166 | 431 | 153 | 123 |
| C[C@]1(O)C[C@@H](c2nc(-c3ccc4ccc(-c5ccccc5)nc4c3)c3c(N)nccn32)C1 + O=C1NC(=O)/C(=C/c2ccc(-c3ccc(F)cc3O)o2)S1 [AS252424] (first compound 0.4 µM, partner dose 1 µM) | 54.3 | 182 | 109 | 88.5 | 94.2 | 43.7 |
| C[C@@H](N)c1ccc(C(=O)Nc2ccnc3[nH]ccc23)cc1 + Cc1ccc(NC(=O)c2cccc(N(C)C)c2)cc1NC(=O)c1ccc(O)cc1 [ZM336372] (first compound 0.4 µM, partner dose 2 µM) | 48.5 | 165 | 103 | 56.8 | 92.3 | 38.3 |
| CC(=O)O[C@@]12CO[C@@H]1C[C@H](O)[C@@]1(C)C(=O)[C@H](O)C3=C(C)[C@@H](OC(=O)[C@H](O)[C@@H](NC(=O)OC(C)(C)C)c4ccccc4)C[C@@](O)([C@@H](OC(=O)c4ccccc4)[C@H]21)C3(C)C [Docetaxel] + CO[C@@H]1[C@H](N(C)C(=O)c2ccccc2)C[C@H]2O[C@]1(C)n1c3ccccc3c3c4c(c5c6ccccc6n2c5c31)C(=O)NC4 [Midostaurin] (first compound 0.0001 µM, partner dose 0.08 µM) | 581 | 1180 | 272 | 180 | 148 | 316 |
| Cn1sc(=O)n(Cc2ccccc2)c1=O + O=C(O)c1ccc2c(c1)nc(Nc1cccc(Cl)c1)c1ccncc12 [CX4945] (first compound 0.4 µM, partner dose 0.4 µM) | 137 | 126 | 103 | 76 | 125 | 65.3 |
| CCCCCCCCc1ccc(CCC(N)(CO)CO)cc1 [fingolimod] + OCc1c[nH]c2ccccc12 [Indole-3-carbinol] (first compound 2 µM, partner dose 0.8 µM) | 112 | 86 | 151 | 105 | 186 | 183 |
| Cn1sc(=O)n(Cc2ccccc2)c1=O + C#Cc1cccc(Nc2ncnc3cc(OCCOC)c(OCCOC)cc23)c1 [erlotinib] (first compound 0.4 µM, partner dose 0.8 µM) | 70.9 | 118 | 115 | 29.5 | 88.3 | 191 |
| Cn1cnc2c(F)c(Nc3ccc(Br)cc3Cl)c(C(=O)NOCCO)cc21 [selumetinib] + NCC(=O)Nc1ccc(-n2nc(C(F)(F)F)cc2-c2ccc3c(ccc4ccccc43)c2)cc1 [OSU03012] (first compound 0.015 µM, partner dose 1 µM) | 152 | 36.2 | 80.3 | 110 | 129 | 50.5 |
| Cn1cnc2c(F)c(Nc3ccc(Br)cc3Cl)c(C(=O)NOCCO)cc21 [selumetinib] + COc1cc2c(Oc3ccc4[nH]c(C)cc4c3F)ncnc2cc1OCCCN1CCCC1 [cediranib] (first compound 0.015 µM, partner dose 0.4 µM) | 144 | 22.6 | 130 | 82.1 | 97.6 | 60.1 |

2 neighbouring records already listed:

| SMILES | cleaved PARP positive nuclei fraction [1] [%] | cleaved PARP positive nuclei fraction [2] [%] | cleaved PARP positive nuclei fraction [3] [%] | cleaved PARP positive nuclei fraction [4] [%] | cleaved PARP positive nuclei fraction [5] [%] | cleaved PARP positive nuclei fraction [6] [%] |
| --- | --- | --- | --- | --- | --- | --- |
| Cn1sc(=O)n(Cc2ccccc2)c1=O + N#Cc1c(O)c2c(-c3ccc(-c4ccccc4O)cc3)csc2[nH]c1=O [A769662] (first compound 0.4 µM, partner dose 2 µM) | 88 | 127 | 87.2 | 40.3 | 94.7 | 61.3 |
| CC(=O)O[C@@]12CO[C@@H]1C[C@H](O)[C@@]1(C)C(=O)[C@H](O)C3=C(C)[C@@H](OC(=O)[C@H](O)[C@@H](NC(=O)OC(C)(C)C)c4ccccc4)C[C@@](O)([C@@H](OC(=O)c4ccccc4)[C@H]21)C3(C)C [Docetaxel] + C[C@]1(c2nc3c(C(N)=O)cccc3[nH]2)CCCN1 [Veliparib] (first compound 0.0001 µM, partner dose 1.4 µM) | 320 | 289 | 176 | 300 | 368 | 187 |
